# Library screen at single concentrations

Sequences of proteins named here, by UniProt entry; tags and fusion partners are left off. Residues count along the entry.
UniProt P9WFT3, whole entry: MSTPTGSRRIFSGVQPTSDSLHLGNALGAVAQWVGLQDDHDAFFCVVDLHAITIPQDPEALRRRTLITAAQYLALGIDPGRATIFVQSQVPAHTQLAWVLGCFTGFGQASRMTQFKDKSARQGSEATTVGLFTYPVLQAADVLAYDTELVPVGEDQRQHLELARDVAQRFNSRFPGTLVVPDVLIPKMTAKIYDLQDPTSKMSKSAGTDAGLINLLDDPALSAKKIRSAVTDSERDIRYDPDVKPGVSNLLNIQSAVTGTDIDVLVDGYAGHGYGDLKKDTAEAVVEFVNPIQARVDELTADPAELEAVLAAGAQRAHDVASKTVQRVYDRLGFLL
UniProt P9WPC5, whole entry: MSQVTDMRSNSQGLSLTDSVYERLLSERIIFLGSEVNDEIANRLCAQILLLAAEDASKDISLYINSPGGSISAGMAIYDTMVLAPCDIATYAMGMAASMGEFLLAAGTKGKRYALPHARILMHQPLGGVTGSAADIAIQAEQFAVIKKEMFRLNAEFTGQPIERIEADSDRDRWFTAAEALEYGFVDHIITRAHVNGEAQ
UniProt P9WPC3, whole entry partner: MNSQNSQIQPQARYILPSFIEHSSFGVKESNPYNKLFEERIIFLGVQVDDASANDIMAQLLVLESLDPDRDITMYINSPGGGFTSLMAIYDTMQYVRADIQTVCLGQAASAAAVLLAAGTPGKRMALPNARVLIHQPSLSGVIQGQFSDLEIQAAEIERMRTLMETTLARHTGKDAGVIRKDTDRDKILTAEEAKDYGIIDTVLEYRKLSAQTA
UniProt I6X8D2, whole entry: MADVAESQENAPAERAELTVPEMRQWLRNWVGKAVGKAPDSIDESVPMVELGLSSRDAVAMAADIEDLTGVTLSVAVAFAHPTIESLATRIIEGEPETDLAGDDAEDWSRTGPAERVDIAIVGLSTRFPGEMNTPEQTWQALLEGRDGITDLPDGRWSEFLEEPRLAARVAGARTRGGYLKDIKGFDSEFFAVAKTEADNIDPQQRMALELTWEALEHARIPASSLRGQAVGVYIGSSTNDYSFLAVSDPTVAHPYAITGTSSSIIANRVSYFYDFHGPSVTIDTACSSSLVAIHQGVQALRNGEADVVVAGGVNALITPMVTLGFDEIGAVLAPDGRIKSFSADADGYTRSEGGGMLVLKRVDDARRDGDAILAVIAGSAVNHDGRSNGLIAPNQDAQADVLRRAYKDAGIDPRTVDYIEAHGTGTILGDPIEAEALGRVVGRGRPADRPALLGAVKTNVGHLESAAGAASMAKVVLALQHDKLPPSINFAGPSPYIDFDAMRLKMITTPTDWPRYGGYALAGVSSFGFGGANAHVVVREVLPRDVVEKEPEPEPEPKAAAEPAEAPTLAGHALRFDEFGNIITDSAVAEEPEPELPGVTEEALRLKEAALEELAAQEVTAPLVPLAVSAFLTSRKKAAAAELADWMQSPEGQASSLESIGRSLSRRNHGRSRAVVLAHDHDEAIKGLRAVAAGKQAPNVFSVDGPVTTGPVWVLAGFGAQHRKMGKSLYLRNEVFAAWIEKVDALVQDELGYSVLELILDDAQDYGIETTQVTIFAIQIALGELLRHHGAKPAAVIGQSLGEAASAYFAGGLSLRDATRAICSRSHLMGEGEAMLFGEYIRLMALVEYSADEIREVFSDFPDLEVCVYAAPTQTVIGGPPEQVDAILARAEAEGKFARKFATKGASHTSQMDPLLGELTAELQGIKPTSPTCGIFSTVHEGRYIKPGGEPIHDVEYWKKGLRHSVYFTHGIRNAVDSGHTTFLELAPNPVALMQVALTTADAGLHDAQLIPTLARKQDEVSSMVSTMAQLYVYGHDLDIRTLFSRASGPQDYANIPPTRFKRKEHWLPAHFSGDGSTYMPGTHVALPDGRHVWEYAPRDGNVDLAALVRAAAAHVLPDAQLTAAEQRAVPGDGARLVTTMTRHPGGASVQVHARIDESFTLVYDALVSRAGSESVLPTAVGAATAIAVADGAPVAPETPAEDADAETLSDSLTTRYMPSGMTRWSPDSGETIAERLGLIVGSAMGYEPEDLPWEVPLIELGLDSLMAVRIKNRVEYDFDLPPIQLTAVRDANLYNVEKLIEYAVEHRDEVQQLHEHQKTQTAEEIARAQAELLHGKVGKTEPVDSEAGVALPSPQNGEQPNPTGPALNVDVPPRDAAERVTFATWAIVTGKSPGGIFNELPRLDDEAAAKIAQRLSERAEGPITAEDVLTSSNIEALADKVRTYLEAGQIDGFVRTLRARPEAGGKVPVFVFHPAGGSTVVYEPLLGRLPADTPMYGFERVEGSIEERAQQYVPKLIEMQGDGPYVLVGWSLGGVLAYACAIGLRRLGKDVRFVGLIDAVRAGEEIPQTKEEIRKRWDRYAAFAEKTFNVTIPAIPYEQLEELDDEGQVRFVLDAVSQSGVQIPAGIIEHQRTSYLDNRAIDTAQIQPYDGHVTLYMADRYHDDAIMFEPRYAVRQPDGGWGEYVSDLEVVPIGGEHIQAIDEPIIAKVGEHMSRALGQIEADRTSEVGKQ
UniProt Q8IDJ8, 1-583: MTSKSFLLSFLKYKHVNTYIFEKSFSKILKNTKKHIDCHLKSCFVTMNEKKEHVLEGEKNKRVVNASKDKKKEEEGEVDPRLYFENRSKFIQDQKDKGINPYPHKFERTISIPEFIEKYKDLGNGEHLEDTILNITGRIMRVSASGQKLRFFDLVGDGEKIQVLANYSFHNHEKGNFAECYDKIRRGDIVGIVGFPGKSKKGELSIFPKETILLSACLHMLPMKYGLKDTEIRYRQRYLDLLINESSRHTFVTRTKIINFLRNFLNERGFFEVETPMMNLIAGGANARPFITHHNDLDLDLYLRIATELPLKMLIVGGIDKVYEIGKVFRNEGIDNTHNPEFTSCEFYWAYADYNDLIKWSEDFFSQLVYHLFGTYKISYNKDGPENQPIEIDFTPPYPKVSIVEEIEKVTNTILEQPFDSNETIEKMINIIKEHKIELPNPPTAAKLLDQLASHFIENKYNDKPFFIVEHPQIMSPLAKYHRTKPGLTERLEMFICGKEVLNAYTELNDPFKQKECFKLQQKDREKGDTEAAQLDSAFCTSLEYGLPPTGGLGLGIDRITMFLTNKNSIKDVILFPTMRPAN

Source: ChEMBL document CHEMBL3988442, “University of Dundee, Small-Polar-MMV Screening Library” (2021).

A: 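Tryptophan-tRNA ligase, Mycobacterium tuberculosis (UniProt P9WFT3). Enzyme assay of tryptophanyl-tRNA synthetase; the read-out is not stated. Concentration: 10 µM. Higher most likely means stronger inhibition; the record gives no direction and few retests gave an IC50. About 65,000 compounds were tested under these conditions; 0.098% (about 64) showed 50% or more at least once.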
B: 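Protease assay of ClpP1P2, read by the AMC dye that it sets free. Target: ClpP1P2, Mycobacterium tuberculosis (UniProt P9WPC5 and UniProt P9WPC3). Compounds at 50 µM. Direction is inferred from only a few compounds that gave an IC50; most scored high, so higher reads as stronger inhibition. Most other retested compounds had strongly negative values. Of about 69,000 compounds tested this way, about 10 (0.015%) reached 50% or more in at least one test.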
C: 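Polyketide synthase Pks13, Mycobacterium tuberculosis (UniProt I6X8D2). Enzyme assay of the thioesterase domain of polyketide synthase 13; the read-out is not stated. Compounds at 30 µM. Higher reads as stronger inhibition (inferred from which compounds were picked for retests). About 67,000 compounds were tested under these conditions; 0.46% (about 300) showed 50% or more at least once.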
D: 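Enzyme assay of the cytosolic lysyl-tRNA synthetase in 384-well plates, read by luminescence. Target: Lysine-tRNA ligase, Plasmodium falciparum 3D7 (UniProt Q8IDJ8). Compounds at 30 µM. Higher reads as stronger inhibition, judged from the few compounds that gave an IC50. Of about 69,000 compounds tested this way, about 49 (0.071%) reached 50% or more in at least one test.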

Values are the deposited “Percent Effect”, in %. The record does not define 0% and 100%; most values in the screen are far below 50% and negative numbers occur (in some assays of this library far below -100). This is an unselected part of the compounds tested. A dash means the value is not listed here; it may have been measured.

SMILES | A | B | C | D
O[C@@H]1C[C@@H](c2nc(-c3cccnc3)no2)N(C2CCOCC2)C1 | 5.235% | -4.838% | 28.54% | -0.4792%
Nc1cc(C(=O)N2CCCC3(C=Cc4ccccc4O3)CC2)ccn1 (stereo not given) | -1.5% | -7.989% | -13.55% | 1.179%
COCc1noc(CCNC(=O)c2cc(C)c(C)[nH]c2=O)n1 | -4.285% | 2.255% | -12.42% | 8.075%
Cc1ccc(C(=O)N2C[C@H]3CCCC(OCc4cccnc4)[C@H]3C2)cn1 (stereo not given in full) | -0.3255% | -12.51% | 5.515% | -2.733%
Cc1ccc(C(=O)NC2CCN(S(C)(=O)=O)CC2)c(=O)[nH]1 | 1.817% | 4.148% | 0.5952% | -0.4881%
CCC(NCc1ccccc1Cl)c1ccccc1OCC(=O)NC (stereo not given) | -4.68% | -11.98% | -4.806% | 4.688%
COCCN1CCO[C@@H]2CN(Cc3ccc(C)o3)C[C@@H]2C1 | -1.834% | -5.446% | 13.73% | 3.957%
CC(C)N(C)Cc1cn2c(n1)CN(C(=O)Cc1ccsc1)CC2 | 3.372% | -8.27% | -4.529% | -1.109%
Cn1ccnc1CN1CCN(CCOc2ccccc2F)CC1 | -7.012% | -7.653% | -9.865% | 3.545%
CC(NC(=O)Cn1cccn1)c1cccnc1 (stereo not given) | -0.7105% | -10.44% | -24.36% | 2.247%
COc1ccc2c(c1)CC(C1CCOCC1)N(C(=O)c1ccnn1C)C2 (stereo not given) | -5.078% | -10.6% | 2.04% | -0.7118%
N#Cc1cc(C#N)c(SCCC(=O)Nc2ccc(F)cc2)nc1N | -2.624% | 1.78% | -20.22% | 8.043%
Cc1nc(Nc2ncccn2)cc(C2CCCN2CC(C)C)n1 (stereo not given) | -7.577% | 6.127% | -47.34% | -3.873%
Cn1cc(CN2CCc3ncnc(N4CCOCC4)c3CC2)cn1 | -0.7752% | -1.559% | -32.36% | 3.221%
O=S(=O)(NCCC(O)c1ccoc1)c1ccc(Cl)s1 (stereo not given) | 0.8909% | -9.234% | 1.892% | -3.3%
O=C1c2cccnc2OC(CN2CCOCC2)CN1C1CCC1 (stereo not given) | - | 0.5867% | -29.79% | 4.75%
CCc1nc(CN(C)c2nccc(N3CCCC(O)C3)n2)no1 (stereo not given) | -2.506% | 11.96% | - | -4.331%
Cn1cccc1-c1cc(C(=O)N2CCCCC2c2ccc(F)cc2)[nH]n1 (stereo not given) | -1.701% | 2.789% | -25.57% | 10.32%
CCC(O)Cn1cc(C2=CCN(Cc3ccc(OC)cc3)CC2)cn1 (stereo not given) | -0.8942% | -14.96% | 2.428% | 5.797%
Cn1cc(NS(=O)(=O)c2ccc3c(c2)CCCC3)ccc1=O | -4.191% | 2.027% | 1.348% | 2.597%
CNC(=O)[C@H]1C[C@@H]2CN(C(=O)Nc3ccccc3)C[C@H]1O2 | 0.9682% | -3.309% | 9.394% | -2.24%
CC(C)(C)OC(=O)NC(C)(C(N)=O)c1cccc(Cl)c1 (stereo not given) | -5.184% | 1.485% | -9.475% | -1.502%
Cc1cnn(C2CCCN(C(=O)c3cn(-c4ccccc4)nc3C)C2)c1 (stereo not given) | -5.066% | -22.29% | -14.73% | -0.3689%
O=C(NCc1cccs1)NCC(O)(c1cccs1)C1CC1 (stereo not given) | -0.9878% | 0.3081% | -6.063% | 18.93%
Cc1nn(C)c(C)c1-c1ccnc(N2CCCN(CC(C)C)CC2)n1 | 1.935% | -9.739% | -7.746% | 0.6336%
O=C(Cc1c[nH]c2ccccc12)N1CCC(Nc2ccccc2)CC1 | -2.26% | -30.77% | -0.9953% | -0.2188%
Cn1cc(CCC(=O)N2C[C@@H]3CC[C@H](C2)N(Cc2ccccn2)C3)cn1 | -4.002% | -6.951% | -42.97% | 10.17%
Cc1cccc(C(=O)N(C)Cc2cc(Br)cs2)n1 | 2.648% | -2.894% | -48.26% | 4.701%
Cc1ccc(NCCCNc2nccc(-c3cn(C)nc3C)n2)nc1 | -0.729% | 0.6056% | -8.591% | -2.204%
CC(C)c1nnc(NCCS(C)(=O)=O)s1 | 2.129% | -5.237% | -5.489% | 9.638%
O=C(NC[C@H]1C[C@@H]2CCN1C[C@@H]2CN1CCCC1)c1ccco1 | -0.07588% | -0.1765% | -29.61% | 4.666%
Cc1c[nH]nc1C1CCCCN1C(=O)CNS(C)(=O)=O (stereo not given) | - | -7.476% | -23.11% | -2.14%
CC(NCC1CCS(=O)(=O)CC1)c1cccc(OC(F)F)c1 (stereo not given) | -4.425% | -4.757% | -21.83% | 0.4159%